Where a chain is given by its changes, count along the chain named. Names and notes keep the numbering of the source. No constants are given. Whether binding was seen depends on the method and setting. Binding seen in cells or lysates may run through a third protein. Some results given as binding are weak or reduced against the parent protein; the word gives no strength. One block for each binder: values may come before it.
Molecular target: FGFR1 expressed in cells (HA-tagged FGFR1; endogenous FGFR1) (human) (UniProt P11362)
Assay: co-immunoprecipitation, IP: Flag of GREM1-Flag mutants, blot for FGFR1

Protein sequences, listed by entry. Tags and fused reporters are not part of them. Lines headed by an entry give the natural chain unless they say otherwise; changes in a name come on top.
UniProt P11362: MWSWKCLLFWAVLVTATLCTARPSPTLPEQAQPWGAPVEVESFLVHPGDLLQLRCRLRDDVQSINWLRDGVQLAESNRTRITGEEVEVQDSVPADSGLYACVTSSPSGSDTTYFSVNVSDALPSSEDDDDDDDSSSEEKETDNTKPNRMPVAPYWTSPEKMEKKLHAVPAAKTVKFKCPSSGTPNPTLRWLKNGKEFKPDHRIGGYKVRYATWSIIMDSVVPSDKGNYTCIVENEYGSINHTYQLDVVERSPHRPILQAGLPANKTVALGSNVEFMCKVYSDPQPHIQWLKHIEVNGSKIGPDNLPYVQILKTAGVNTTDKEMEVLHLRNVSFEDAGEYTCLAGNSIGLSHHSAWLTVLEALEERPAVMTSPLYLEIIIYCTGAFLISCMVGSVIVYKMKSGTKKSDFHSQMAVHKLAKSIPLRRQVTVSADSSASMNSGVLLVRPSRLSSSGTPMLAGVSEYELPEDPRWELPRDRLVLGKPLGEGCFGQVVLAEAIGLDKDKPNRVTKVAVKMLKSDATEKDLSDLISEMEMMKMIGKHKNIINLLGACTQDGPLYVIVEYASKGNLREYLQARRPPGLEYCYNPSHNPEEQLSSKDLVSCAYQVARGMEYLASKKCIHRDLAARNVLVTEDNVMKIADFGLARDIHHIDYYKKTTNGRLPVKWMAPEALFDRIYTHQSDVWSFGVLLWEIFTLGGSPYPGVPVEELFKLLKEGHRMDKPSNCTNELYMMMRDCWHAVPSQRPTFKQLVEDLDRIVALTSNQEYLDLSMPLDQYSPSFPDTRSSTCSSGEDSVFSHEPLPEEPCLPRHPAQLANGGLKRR

binding: binds
B1: K66G-R67G (ligand)
single chain: KKKGSQGAIPPPDKAQHNDSEQTQSPQQPGSRNRGRGQGRGTAMPGEEVLESSQEALHVTERKYLGGDWCKTQPLKQTIHEEGCNSRTIINRFCYGQCNSFYIPRHIRKEEGSFQSCSFCKPKKFTTMMVTLNCPELQPPTKKKRVTRVKQCRCISIDLD

binding: binds
B2: R92A-R148A (ligand)
single chain: B1 single chain with G66K, G67R, R92A, R148A
